# From the supplement of paper PMC8728848
# The list shows a part of the results.
# What was measured:
# Assay in all cases: glycan array binding signal (z-score within array); higher = stronger binding
# Settings in all cases: glycan notation: IUPAC condensed, linker removed
# [1] = biological target: Fuc(b1-3)GlcNAc
# In short: (§1)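 Arrays were curated from the Consortium for Functional Glycomics database, 3228 in total, and kept only where the protein sequence was available. Binding is expressed as a within-array Z-score. This score was averaged across arrays of the same protein sequence at different concentrations or buffers and across linkers, and negative values can be read as non-binding.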
# [2] = biological target: Gal(a1-2)Gal
# In short: as §1
# [3] = biological target: Gal(a1-3)Gal
# In short: as §1
# [4] = biological target: Gal(a1-3)Gal(b1-3)GlcNAc
# In short: as §1
# [5] = biological target: Gal(a1-3)Gal(b1-4)Glc
# In short: as §1
# [6] = biological target: Gal(a1-3)Gal(b1-4)GlcNAc
# In short: as §1
# [7] = biological target: Gal(a1-3)Gal(b1-4)[Fuc(a1-3)]GlcNAc
# In short: as §1
# [8] = biological target: Gal(a1-3)GalNAc
# In short: as §1
# [9] = biological target: Gal(a1-3)[Gal(a1-4)]Gal(b1-4)GlcNAc
# In short: as §1
# [10] = biological target: Gal(a1-4)Gal(b1-4)Glc
# In short: as §1
# [11] = biological target: Gal(a1-4)Gal(b1-4)GlcNAc
# In short: as §1
# [12] = biological target: Gal(a1-4)GlcNAc
# In short: as §1
# [13] = biological target: Gal(a1-6)Glc
# In short: as §1
# [14] = biological target: Gal(b1-2)Gal
# In short: as §1
# [15] = biological target: Gal(b1-3)Gal
# In short: as §1
# [16] = biological target: Gal(b1-3)GalNAc
# In short: as §1
# [17] = biological target: Gal(b1-3)GalNAc(b1-3)Gal(a1-4)Gal(b1-4)Glc
# In short: as §1
# [18] = biological target: Gal(b1-3)GalNAc(b1-4)Gal(b1-4)Glc
# In short: as §1
# [19] = biological target: Gal(b1-3)GalNAc(b1-4)[Neu5Ac(a2-3)]Gal(b1-4)Glc
# In short: as §1
# [20] = biological target: Gal(b1-3)GlcNAc
# In short: as §1
# [21] = biological target: Gal(b1-3)GlcNAc(b1-3)Gal(b1-3)GlcNAc
# In short: as §1
# [22] = biological target: Gal(b1-3)GlcNAc(b1-3)Gal(b1-4)Glc
# In short: as §1
# [23] = biological target: Gal(b1-3)GlcNAc(b1-3)Gal(b1-4)GlcNAc
# In short: as §1
# [24] = biological target: Gal(b1-3)[Fuc(a1-4)]GlcNAc
# In short: as §1
# [25] = biological target: Gal(b1-3)[Fuc(a1-4)]GlcNAc(b1-3)Gal(b1-3)[Fuc(a1-4)]GlcNAc
# In short: as §1
# [26] = biological target: Gal(b1-3)[Fuc(a1-4)]GlcNAc(b1-3)Gal(b1-4)GlcNAc
# In short: as §1
# [27] = biological target: Gal(b1-3)[Fuc(a1-4)]GlcNAc(b1-3)Gal(b1-4)[Fuc(a1-3)]GlcNAc
# In short: as §1
# [28] = biological target: Gal(b1-3)[GlcNAc(b1-6)]GalNAc
# In short: as §1
# [29] = biological target: Gal(b1-3)[Neu5Ac(a2-6)]GalNAc
# In short: as §1
# [30] = biological target: Gal(b1-3)[Neu5Ac(a2-6)]GlcNAc(b1-6)Gal(b1-4)Glc
# In short: as §1
# [31] = biological target: Gal(b1-3)[Neu5Ac(b2-6)]GalNAc
# In short: as §1
# [32] = biological target: Gal(b1-4)GalNAc(a1-3)[Fuc(a1-2)]Gal(b1-4)GlcNAc
# In short: as §1
# [33] = biological target: Gal(b1-4)GalNAc(b1-3)[Fuc(a1-2)]Gal(b1-4)GlcNAc
# In short: as §1
# [34] = biological target: Gal(b1-4)Glc
# In short: as §1
# [35] = biological target: Gal(b1-4)Glc6S
# In short: as §1
# [36] = biological target: Gal(b1-4)GlcNAc
# In short: as §1
# [37] = biological target: Gal(b1-4)GlcNAc(b1-2)Man(a1-3)[Gal(b1-4)GlcNAc(b1-2)Man(a1-6)]Man(b1-4)GlcNAc(b1-4)GlcNAc
# In short: as §1
# [38] = biological target: Gal(b1-4)GlcNAc(b1-3)Gal(b1-3)GlcNAc
# In short: as §1
# [39] = biological target: Gal(b1-4)GlcNAc(b1-3)Gal(b1-4)Glc
# In short: as §1
# [40] = biological target: Gal(b1-4)GlcNAc(b1-3)Gal(b1-4)GlcNAc
# In short: as §1
# [41] = biological target: Gal(b1-4)GlcNAc(b1-3)Gal(b1-4)GlcNAc(b1-3)Gal(b1-4)GlcNAc
# In short: as §1
# [42] = biological target: Gal(b1-4)GlcNAc(b1-3)Gal(b1-4)[Fuc(a1-3)]GlcNAc(b1-3)Gal(b1-4)[Fuc(a1-3)]GlcNAc
# In short: as §1
# [43] = biological target: Gal(b1-4)GlcNAc(b1-3)GalNAc
# In short: as §1
# [44] = biological target: Gal(b1-4)GlcNAc(b1-3)[Gal(b1-4)GlcNAc(b1-6)]GalNAc
# In short: as §1
# [45] = biological target: Gal(b1-4)GlcNAc(b1-6)Gal(b1-4)GlcNAc(b1-6)GalNAc
# In short: as §1
binder,measurement,setting,value
Fap1 (Streptococcus parasanguis) (protein) KATSKGTEEKQDSVRENLDKMISEAEVLNDMAARKLITLDAEQQLELMKSLVATQSQLEATKNLIGDPNATVADLQIAYTTLGNNTQALGNELIKLNPNGQIYAVLNNTEASRAATLRSTTTGTKTTFTISDFSNGGTQYYWAGGNANNLKNPISSISAVYDSATGKISWTVEYDPTTILKSPALKTLKTYTGIYIDTSSDSKLSTPTNVLIDGAATNPVTNFYGNGSKGIEYVSKGTTKGVTKHTITFDTAFSGRANDLADLEIKMLAATTLSDPHFYEDGSKGNYGRYNGQTAPYVIANDSGTAIGGYQVSGVNADSIPSDTT,glycan array binding signal (z-score),[1],0.144
same,glycan array binding signal (z-score),[2],1.05
same,glycan array binding signal (z-score),[3],0.49
same,glycan array binding signal (z-score),[4],0.054
same,glycan array binding signal (z-score),[5],0.803
same,glycan array binding signal (z-score),[6],0.194
same,glycan array binding signal (z-score),[7],0.09
same,glycan array binding signal (z-score),[8],0.025
same,glycan array binding signal (z-score),[9],0.144
same,glycan array binding signal (z-score),[10],0.386
same,glycan array binding signal (z-score),[11],-0.093
same,glycan array binding signal (z-score),[12],0.798
same,glycan array binding signal (z-score),[13],0.864
same,glycan array binding signal (z-score),[14],-0.828
same,glycan array binding signal (z-score),[15],-0.318
same,glycan array binding signal (z-score),[16],-0.24
same,glycan array binding signal (z-score),[17],-0.169
same,glycan array binding signal (z-score),[18],0.325
same,glycan array binding signal (z-score),[19],-0.471
same,glycan array binding signal (z-score),[20],0.462
same,glycan array binding signal (z-score),[21],-0.86
same,glycan array binding signal (z-score),[22],-0.192
same,glycan array binding signal (z-score),[23],-0.243
same,glycan array binding signal (z-score),[24],0.21
same,glycan array binding signal (z-score),[25],0.004
same,glycan array binding signal (z-score),[26],-0.712
same,glycan array binding signal (z-score),[27],-0.619
same,glycan array binding signal (z-score),[28],-0.4
same,glycan array binding signal (z-score),[29],-0.055
same,glycan array binding signal (z-score),[30],-0.688
same,glycan array binding signal (z-score),[31],-0.541
same,glycan array binding signal (z-score),[32],-0.822
same,glycan array binding signal (z-score),[33],0.142
same,glycan array binding signal (z-score),[34],-0.51
same,glycan array binding signal (z-score),[35],-0.072
same,glycan array binding signal (z-score),[36],0.13
same,glycan array binding signal (z-score),[37],-0.304
same,glycan array binding signal (z-score),[38],-0.913
same,glycan array binding signal (z-score),[39],-0.861
same,glycan array binding signal (z-score),[40],-0.545
same,glycan array binding signal (z-score),[41],-0.471
same,glycan array binding signal (z-score),[42],0.461
same,glycan array binding signal (z-score),[43],1.12
same,glycan array binding signal (z-score),[44],-0.525
same,glycan array binding signal (z-score),[45],-0.15

# Looked up one by one from the entries so far, 2 records:
binder,measurement,setting,value
Fap1 (Streptococcus parasanguis) (protein) KATSKGTEEKQDSVRENLDKMISEAEVLNDMAARKLITLDAEQQLELMKSLVATQSQLEATKNLIGDPNATVADLQIAYTTLGNNTQALGNELIKLNPNGQIYAVLNNTEASRAATLRSTTTGTKTTFTISDFSNGGTQYYWAGGNANNLKNPISSISAVYDSATGKISWTVEYDPTTILKSPALKTLKTYTGIYIDTSSDSKLSTPTNVLIDGAATNPVTNFYGNGSKGIEYVSKGTTKGVTKHTITFDTAFSGRANDLADLEIKMLAATTLSDPHFYEDGSKGNYGRYNGQTAPYVIANDSGTAIGGYQVSGVNADSIPSDTT,glycan array binding signal (z-score),[2],1.05
same,glycan array binding signal (z-score),[4],0.054
